# Source: PubChem BioAssay AID493014 (National Center for Advancing Translational Sciences (NCATS), 2011)
# The campaign covered roughly 340,000 compounds. About 170 (0.05%) were called active. Inconclusive means that the source gave no clear call. Such entries were picked first, then a sample of the others. The call rests on the fitted dose curve; in most records, active means well fitted inhibition curve with a large enough effect in the signal ratio, with a control signal flat (not every such curve was filed as active); inconclusive means small, poorly fitted or top-dose-only effect, or effect the other way, or a change in a side signal; inactive means flat fitted curve, though single readings scatter; the % refers to the signal ratio. Potencies of inconclusive entries are doubtful fits and often do not repeat.
# Experiment: qHTS Assay to Find Inhibitors of Chronic Active B-Cell Receptor Signaling;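 on activity change, negative = inhibition: plate controls were basal doxycycline-induced cells for no effect and cells given 10 µM MG132 for full effect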
# Settings: ABC-DLBCL IkBa-CBG/CBR reporter, luminescence ratio (green luciferase fused to IkBa over red control in TMD8 lymphoma cells), 4 h; activity change, negative = inhibition: at 46.1 µM (top of the series) unless noted
# Procedure, shortened: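 Doxycycline induced both beetle luciferases in TMD8 lymphoma cells; IKK-driven degradation limits the IkappaBalpha-fused green signal, while red luminescence normalises for cell number and nonspecific effects. Compounds tested up to 46 uM, 4 hrs.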
# Potency means the concentration at half of the fitted maximal effect.
SMILES,"activity change, negative = inhibition",Potency
Cc1ccccc1C1c2[nH]c3ccccc3c2C[C@H]2C(=O)N(c3ccccc3C(=O)NCCN3CCOCC3)C(=O)N12 (some centres not stated),inconclusive: 4.02%,
CCCCc1[nH]nc2c1C1(C(=O)N(CC)c3ccccc31)C(C#N)=C(N)O2 (configuration not stated),inconclusive: 12.7%,
C=CCNC1=C(Cl)C(=O)c2ccccc2C1=O,inactive: -0.227%,
CCc1ccc(-c2nc(CS(=O)CC(=O)O)c(C)o2)cc1 (configuration not stated),inconclusive: -8.13%,
O=C(O)c1ccc2c3c(cccc13)C(=O)N(c1ccccc1)C2=O,inactive: -1.34%,
O=C(NNC(=O)c1cccc(Br)c1)Nc1ccc(Cl)cc1,inactive: 0.603%,
O=C(O)c1cccc(NS(=O)(=O)c2ccc(NC(=O)c3ccco3)cc2)c1,inconclusive: -14.5%,
CN1CCN(c2nc(NCCOC34CC5CC(CC(C5)C3)C4)nc(OCC(F)(F)F)n2)CC1,inconclusive: 5.54%,
COc1cccc(N2CC(C(=O)Nc3nnc(SCc4cccnc4)s3)CC2=O)c1 (configuration not stated),inactive: 1.37%,
c1ccc(N2CCOCC2)c(Nc2nc3ccccc3n3cnnc23)c1,inactive: 0.604%,
CCCCn1c(N)c(N(CC(C)C)C(=O)CN2C(=O)NC3(CC(C)CC(C)(C)C3)C2=O)c(=O)[nH]c1=O (configuration not stated),inconclusive: -1.1%,
Cc1ccc(-c2cc(C(=O)N/N=C/c3cccnc3)n[nH]2)o1,inconclusive: 3.36%,
CCOC(=O)C(O)(CC(=O)c1ccc(Cl)cc1)C(=O)OCC,inconclusive: -7%,
CC(=O)Nc1ccc(S(=O)(=O)/N=C2\SCCN2S(=O)(=O)c2ccc(NC(C)=O)cc2)cc1,inconclusive: 4.74%,
C/C(=N/NC(=O)c1ccccc1)c1ccc(NC(=O)C(F)(F)F)cc1,,"inconclusive: 35.5 µM [rising, single point]"
COc1ccc([N+](=O)[O-])cc1NC(=O)C(C)OC(=O)CSC(C)C(=O)Nc1cc(C)on1 (configuration not stated),inactive: 27.5%,
Cc1ccc(NC(=S)NNC(=O)c2nn(C)cc2Cl)cc1,inconclusive: -17.8%,
COC(=O)Cn1c(CCS(=O)(=O)c2ccc(C)cc2)nc2ccccc21,inactive: 6.58%,
Cc1ccc2nc(NC(=O)c3ccco3)sc2c1,,"inconclusive: 25.9 µM [rising, single point]"
CC(C)c1ccc(/C=C2\SC(=O)N(CC(=O)NC3C=CS(=O)(=O)C3)C2=O)cc1 (configuration not stated),,"inconclusive: 22.4 µM [falling, partial curve]"
O=C(O)c1ccccc1/C=N/Nc1ccc(S(=O)(=O)N2CCOCC2)cc1[N+](=O)[O-],inactive: 5.66%,
COC(=O)Cc1c(C)nc2nc(NCc3ccccc3OC)[nH]n2c1=O,,"inconclusive: 12.6 µM [falling, partial curve]"

# Quoted from the listing, two compounds:
SMILES,"activity change, negative = inhibition",Potency
COC(=O)Cn1c(CCS(=O)(=O)c2ccc(C)cc2)nc2ccccc21,inactive: 6.58%,
Cc1ccc2nc(NC(=O)c3ccco3)sc2c1,,"inconclusive: 25.9 µM [rising, single point]"
